In publication doi:10.1101/325332:
Results are given in words; binding and its absence hold for the method and conditions named. Binding seen in cells or lysates may run through a third protein. A yes stands for co-enrichment or nearness to the bait. Other partners may have been found.

By UniProt entry, the sequences of proteins in these tests, tags left out.
UniProt Q96NC0: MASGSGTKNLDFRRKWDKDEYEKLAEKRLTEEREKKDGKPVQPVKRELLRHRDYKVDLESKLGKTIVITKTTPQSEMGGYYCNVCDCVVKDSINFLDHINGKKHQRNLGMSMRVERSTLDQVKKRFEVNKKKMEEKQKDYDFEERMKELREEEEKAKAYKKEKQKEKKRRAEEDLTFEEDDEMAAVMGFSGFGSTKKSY
UniProt Q07955: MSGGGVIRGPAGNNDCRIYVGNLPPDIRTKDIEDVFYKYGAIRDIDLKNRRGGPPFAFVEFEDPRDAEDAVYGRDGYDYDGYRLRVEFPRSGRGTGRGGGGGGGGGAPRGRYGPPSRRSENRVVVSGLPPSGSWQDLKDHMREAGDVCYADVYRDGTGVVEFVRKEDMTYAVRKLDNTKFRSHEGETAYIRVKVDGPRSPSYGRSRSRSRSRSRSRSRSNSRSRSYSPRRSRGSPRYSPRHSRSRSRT

Biological target: matrin-type 2 zinc-finger protein ZMAT2 (human (endogenous in primary keratinocytes)) (UniProt Q96NC0)
Test: affinity purification with mass spectrometry

SRSF1 (from UniProt Q07955 1-248)
binding: binds
